The test system of the assay is Extracted Guinea Pigs' Aortae. The assay can be described thus: Relaxation of extracted thoracic aorta contracted by KCl or NE. The following applies: Cavia porcellus, 50% relaxation. More on the design: species or system Hartley guinea pigs. From the text: Stunned by receiving a blow on the head, Hartley guinea pigs (weighing 300-500 g) were fixed at the back regions, and the thoracic aortae were then extracted to prepare helical samples, each ca. 2 mm in width and ca. 25 mm in length. Each sample was suspended in a Magnus tube under a load of ca. 1 g and connected at the upper end with an FD pickup by means of silk thread to record its isometric tension change on a recorder.
Prior to initiating the experiment, the sample was allowed to stand for 60 to 90 minutes, during which the Krebs-Henseleit solution was replaced by a new one at an interval of 20 to 30 minutes. […] Finally, papaverine was additionally provided to regulate the final concentration to 2 x 10- ^5g/ml, thereby observing and recording what relaxing reaction took place.
The state stabilized by the addition of KCI or NE was defined as a 100% relaxation rate, on the basis of which what reaction took place at each concentration was relatively estimated.

Read-outs that look alike come from different tables or passages of the source.

The results in this text go back to patent EP0485217A2, “Hydantoin derivatives, and their use in preventing and treating diabetic complications and circulatory organ diseases” (priority 1990, dated 1992).

The term IC50 denotes the midpoint of a concentration-inhibition curve.

Regarding `C(=C\c1ccccc1)/CN1CCN(C(c2ccccc2)c2ccccc2)CC1` [Cinnarizine, reference compound], the IC50 was determined as 0.0002 M (contraction by KCl 2.5 x 10^-2M, read-out: IC50(M) Contraction by KCl) and 0.0001 M (contraction by norepinephrine 10^-6 g/ml, read-out: IC50(M) Contraction by NE).
